These are yes or no findings as the source states them, for the method shown. A result given as binding can be weak or reduced; the word gives no strength.
How the values were obtained:
[1] = target: 135 kD GDNF receptor subunit of rat cell lines; assay: EDAC cross-linking to RN33B cells, SDS/PAGE
[2] = target: 135 kD GDNF receptor subunit of rat cell lines; assay: affinity labeling with the cross-linker EDAC
[3] = target: 300 kD GDNF receptor subunit of rat cell lines; assay: affinity labeling with the cross-linker EDAC
[4] = target: 300 kD GDNF receptor subunit of rat cell lines; assay: DSS cross-linking of 125I-GDNF to L6 rat myoblasts
[5] = target: 135 kD GDNF receptor subunit of rat cell lines; assay: EDAC cross-linking of 125I-GDNF to L6 rat myoblasts
[6] = target: 300 kD GDNF receptor subunit of rat cell lines; assay: DSS cross-linking of 125I-GDNF to C6, RN33B and RN46A cells
[7] = target: 300 kD GDNF binding protein of E10 chick sympathetic neurons; assay: chemical cross-linking to chick sympathetic neurons, SDS-PAGE
[8] = target: 70 kD GDNF binding protein of E10 chick sympathetic neurons; assay: as above
[9] = target: 300 kD GDNF binding protein of E10 chick sympathetic neurons; assay: affinity labeling of chick sympathetic neurons, SDS/PAGE autoradiography
[10] = target: 70 kD GDNF binding protein of E10 chick sympathetic neurons; assay: as above
[11] = target: 135 kD GDNF receptor subunit of rat cell lines; assay: affinity labeling: 125I-GDNF cross-linked to C6 cells, SDS/PAGE, autoradiography
[12] = target: 300 kD GDNF receptor subunit of rat cell lines; assay: as above
[13] = target: 135 kD GDNF receptor subunit of rat cell lines; assay: affinity labeling: 125I-GDNF cross-linked to L6 cells, SDS/PAGE, autoradiography
[14] = target: 300 kD GDNF receptor subunit of rat cell lines; assay: as above
[15] = target: 300 kD GDNF receptor subunit of human cell lines (A875, LAN5); assay: affinity labeling: 125I-GDNF cross-linked to A875 cells, SDS/PAGE, autoradiography
[16] = target: 300 kD GDNF receptor subunit of human cell lines (A875, LAN5); assay: affinity labeling: 125I-GDNF cross-linked to LAN5 cells, SDS/PAGE, autoradiography
[17] = target: 135 kD GDNF receptor subunit of rat cell lines; assay: affinity labeling: 125I-GDNF cross-linked to RN33B cells, SDS/PAGE, autoradiography
[18] = target: 300 kD GDNF receptor subunit of rat cell lines; assay: as above
[19] = target: 135 kD GDNF receptor subunit of rat cell lines; assay: affinity labeling: 125I-GDNF cross-linked to RN46A cells, SDS/PAGE, autoradiography
[20] = target: 300 kD GDNF receptor subunit of rat cell lines; assay: as above
[21] = target: 300 kD GDNF receptor subunit of rat cell lines; assay: affinity labeling: 125I-GDNF cross-linked to ST15A cells, SDS/PAGE, autoradiography
[22] = target: 135 kD GDNF receptor subunit of rat cell lines; assay: displacement of 125I-GDNF by increasing cold GDNF on RN33B cells, cross-linking, SDS-PAGE, band of the subunit cut out and counted
[23] = target: 300 kD GDNF receptor subunit of rat cell lines; assay: as above

Measured: binding

B1: recombinant rat GDNF produced in Sf21 insect cells using a baculovirus expression system (ligand, UniProt Q07731 78-211, looked up)
chain: SPDKQAAALPRRERNRQAAAASPENSRGKGRRGQRGKNRGCVLTAIHLNVTDLGLGYETKEELIFRYCSGSCEAAETMYDKILKNLSRSRRLTSDKVGQACCRPVAFDDDLSFLDDSLVYHILRKHSAKRCGCI
modifications: labeled with Na-^125I by the chloramine-T method where used as tracer
binds: all assays above
